Source: PubChem BioAssay AID720711 (National Center for Advancing Translational Sciences (NCATS), 2013)
Among all 360,000 compounds or so, about 290 (0.081%) were called active. This list was built around the results that the source calls inconclusive (neither active nor inactive); the mix of calls is not that of the screen. Calls come from the whole dose curve; as a rule, active = well fitted activation curve with a large enough effect; inconclusive = small, poorly fitted or top-dose-only effect; inactive = no such curve, though single readings can be large or run the other way. Potencies beside an inconclusive call are fits to weak or partial responses and may not hold up.

Amino acid sequences for entries named in this document (tags omitted).
UniProt Q8WZA2, whole entry, looked up: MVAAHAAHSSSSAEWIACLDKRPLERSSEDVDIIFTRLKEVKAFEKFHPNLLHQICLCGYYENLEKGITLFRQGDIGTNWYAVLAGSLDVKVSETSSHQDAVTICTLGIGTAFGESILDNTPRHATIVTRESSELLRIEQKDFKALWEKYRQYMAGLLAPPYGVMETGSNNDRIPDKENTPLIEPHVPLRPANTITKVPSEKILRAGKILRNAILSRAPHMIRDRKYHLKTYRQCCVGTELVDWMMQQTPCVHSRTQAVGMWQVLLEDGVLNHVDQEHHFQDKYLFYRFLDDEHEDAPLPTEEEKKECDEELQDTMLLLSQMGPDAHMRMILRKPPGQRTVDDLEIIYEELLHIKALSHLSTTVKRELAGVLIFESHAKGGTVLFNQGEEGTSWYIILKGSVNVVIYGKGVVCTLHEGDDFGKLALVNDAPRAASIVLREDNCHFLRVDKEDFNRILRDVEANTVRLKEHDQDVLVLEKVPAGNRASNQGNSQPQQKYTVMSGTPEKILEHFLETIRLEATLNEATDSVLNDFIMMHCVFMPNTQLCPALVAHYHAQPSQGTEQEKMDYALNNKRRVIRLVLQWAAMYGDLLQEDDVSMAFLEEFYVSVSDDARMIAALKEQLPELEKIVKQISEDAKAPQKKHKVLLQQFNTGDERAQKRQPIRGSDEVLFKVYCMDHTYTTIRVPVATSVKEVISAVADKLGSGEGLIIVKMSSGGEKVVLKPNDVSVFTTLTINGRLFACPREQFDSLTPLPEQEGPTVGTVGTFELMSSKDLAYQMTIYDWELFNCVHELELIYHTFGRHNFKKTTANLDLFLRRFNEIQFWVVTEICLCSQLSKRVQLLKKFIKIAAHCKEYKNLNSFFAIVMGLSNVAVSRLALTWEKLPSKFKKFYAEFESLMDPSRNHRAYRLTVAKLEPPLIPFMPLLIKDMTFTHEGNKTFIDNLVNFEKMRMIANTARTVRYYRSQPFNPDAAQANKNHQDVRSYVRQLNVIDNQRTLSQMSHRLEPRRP

biological target: Rap guanine nucleotide exchange factor 4 (Homo sapiens) (UniProt Q8WZA2); assay: qHTS for Agonist of cAMP-regulated guanine nucleotide exchange factor 4 (EPAC2): primary screen; settings: biochemical qHTS; Potency: EPAC2 activation unless noted; activation: at 154 µM (top of the series), 100% = 6.5 mM cAMP response unless noted; note: nearly all actives have a fitted effect of over 50% in size
How it was run: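 Fluorescence exchange assay: 100 nM EPAC2 with 250 nM RAP1B-BODIPY-GDP and 50 uM GDP; compounds tested as a concentration-titration series (qHTS). Loss of Rap1-bound BODIPY-GDP fluorescence read at 480/540 nm; data normalized to 6.5 mM cAMP.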
Potency is the fitted concentration of half-maximal effect.

SMILES | Potency | activation
CCOC(=O)c1ccc2[nH]cc(C(C)=O)c(=O)c2c1 | inconclusive: 100 µM [activator, partial curve] | 
NNc1nc(Nc2ccccc2)nc(N2CCCCC2)n1 | inconclusive: 50.1 µM [activator, single point] | 
O=C(Nc1ccccc1)N1N=C(c2cccs2)CC1c1cccs1 (stereo not given) | inconclusive: 44.7 µM [activator, partial curve, poor fit] | 
COc1ccccc1N1CCN(CCNC(=O)Nc2cccc(C)c2C)CC1 |  | inactive: -0.0552%
COc1ccc(C(=O)CSc2nnc(-c3ccccc3)o2)cc1 |  | inconclusive: 82.9% [activator] [at 15.6 µM, 100% = 6.5 mM cAMP response]
Cc1cc(F)ccc1C(O)c1ncc(-c2ccc3ccccc3c2)[nH]1 (stereo not given) | inconclusive: 56.2 µM [activator, partial curve] | 
CCc1ccc(NC(=O)/C(C#N)=C/c2cc3ccc(C)cc3nc2N2CCOCC2)cc1 | active: 100 µM | 
NC(N)=NS(=O)(=O)c1ccc(NC(=S)NC(=O)c2sc3ccccc3c2Cl)cc1 |  | inactive: 1.09%
Cc1ccsc1/C=C1/SC(=O)N(CC(=O)N2CCOCC2)C1=O | inconclusive: 35.5 µM [activator, single point] | 
Cn1c(=O)n(Cc2ccccc2)c2ccccc21 |  | inactive: 7.19%
O=C(NNc1ccccc1[N+](=O)[O-])Nc1ccc(Cl)c(Cl)c1 |  | inactive: -10.8%
Cc1c(NS(=O)(=O)c2ccc(NCCN3CCOCC3)c([N+](=O)[O-])c2)c(=O)n(-c2ccccc2)n1C |  | inactive: 2.35%
CCCCCCc1cc2cc(/C(N)=N/NC(=O)c3ccncc3)c(=O)oc2cc1O | inconclusive: 14.1 µM [activator, full curve, poor fit] | 
CC1=CC(=C(C#N)c2nc3ccccc3s2)C=C(C)N1Cc1ccco1 | inconclusive: 112 µM [activator, single point] | 
CCOC(=O)C1=C(C)N=C2c3ccccc3C(=O)C2C1c1ccc(Cl)cc1 (stereo not given) |  | inactive: 3.65%
O=S(=O)(NC1CCN(S(=O)(=O)c2c(F)cccc2F)C1)c1ccc2c(c1)OCCO2 (stereo not given) |  | inactive: 7.36%
O=c1c2ccccc2c(/C=N/NS(=O)(=O)c2ccccc2)c(O)n1-c1ccccn1 | inconclusive: 126 µM [activator, single point] | 
N/C(=N\OC(=O)/C=C/c1ccccc1Cl)c1cccnc1 |  | inactive: 0.813%
COc1ccc(/C=C2/SC(=S)N(Cc3ccccc3)C2=O)cc1O |  | inactive: 10.6%
COc1ccc2noc3c2c1C(=O)c1ccccc1-3 | inconclusive: 126 µM [activator, partial curve, poor fit] | 
CCN1C(=O)[C@H]2[C@H]3CN=C(SCC(=O)c4ccccc4)N3[C@@](C)(C(=O)OC)[C@H]2C1=O |  | inactive: 5.32%
C/C(=N\Nc1nc2ccccc2[nH]1)c1ccc(Cl)s1 | inconclusive: 112 µM [activator, partial curve] | 
COC1=C/C(=C/c2c(N)n3c(nc2=O)sc2cc(S(C)(=O)=O)ccc23)C=CC1=O |  | inactive: 14.3%

SMILES | Potency | activation
CC(C)(C)CNC(=O)c1cccc2c1C(=O)c1ccc(-c3cc4ccccc4o3)cc1S2(=O)=O | active: 100 µM | 
Cc1ccc(OCCn2c(=O)cnc3ccccc32)cc1 |  | inconclusive: 31.9% [activator] [at 15.6 µM, 100% = 6.5 mM cAMP response]
C/C(=N\N=C(/N)SC1CC(=O)N(c2ccc(Cl)cc2)C1=O)c1cccs1 (stereo not given) | inconclusive: 89.1 µM [activator, partial curve] | 
Cc1c2ccccc2nc2c(F)c(NC(C)C)c(F)c(F)c12 | inconclusive: 100 µM [activator, partial curve] | 
CC[C@H](C)[C@@H]1NC(=O)c2cc([N+](=O)[O-])cc(I)c2SC[C@@H](C(N)=O)NC(=O)[C@H](CCCCN)NC1=O | inconclusive: 44.7 µM [activator, full curve] | 
CC(C)CCN1C(=O)c2cccc3c(N)ccc(c23)C1=O | inconclusive: 3.16 µM [activator, full curve, poor fit] | 
CCCCn1nnc(NC(=O)c2ccco2)n1 | inconclusive: 126 µM [activator, single point] | 
CCOc1cccc(=O)c2c(C)oc(C)c12 | inconclusive: 112 µM [activator, partial curve] | 
CCCc1[nH]nc2c1C(c1cccnc1)C(C#N)=C(N)O2 (stereo not given) |  | inconclusive: 48.1% [activator] [at 15.6 µM, 100% = 6.5 mM cAMP response]
NC(N)=N/N=C/c1ccc(OCc2ccc(Cl)cc2Cl)cc1 | inconclusive: 63.1 µM [activator, partial curve] | 
CC1CCN(c2ccc3c(c2)S(=O)(=O)c2cccc(C(=O)NC4CCCCC4)c2C3=O)CC1 | active: 50.1 µM | 
CCC(NC(=O)Nc1ncccc1C)(C(F)(F)F)C(F)(F)F | inconclusive: 126 µM [activator, partial curve, poor fit] | 
CCOC(=O)C(=Cc1ccc2c(c1)OCO2)c1ccccc1 |  | inconclusive: 31.3% [activator]
O=C(NCCOC(=O)c1ccc(C(=O)OCCNC(=O)c2cccnc2)s1)c1cccnc1 |  | inactive: 7.77%
N#CC1=C(N)OC2=C(CC/C2=C\c2ccccc2)C1c1ccccc1 (stereo not given) | inconclusive: 31.6 µM [activator, partial curve, poor fit] | 
CCc1c(C)nc(SCC(=O)c2cccs2)c(C#N)c1C | inconclusive: 112 µM [activator, single point] | 
Cc1nn(C(C)C)c(C)c1CN1CCN(Cc2ccsc2)C(CCO)C1 (stereo not given) | inconclusive: 112 µM [activator, partial curve] | 
O=C(Nc1ccc2oc(Cc3ccc(Cl)cc3)nc2c1)c1cccnc1 |  | inactive: 3.77%
Cc1nc(N2CCCCC2)sc1C(=O)c1ccc(SCCO)c([N+](=O)[O-])c1 | inconclusive: 70.8 µM [activator, partial curve, poor fit] | 
COc1ccc(CCNC(=O)C2CC=CCC2C(=O)O)cc1 (stereo not given) |  | inactive: 9.88%
Cc1cnc(C(=O)OCc2nc3ccsc3c(=O)[nH]2)cn1 |  | inactive: 3.93%
COc1cccc(-c2ccc(C#N)c(OC(=O)c3ccc(Cl)cc3)n2)c1 | active: 6.31 µM | 
